PubChem BioAssay AID493246 | Drosophila RNAi Screening Center | 2011
Assay: 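Genome-wide search for dsRNAs that reduce cell number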 (primary screen). Cell system: Drosophila Kc and S2R+ cells. Knock-down reagent: long dsRNA against Drosophila genes. Detection: 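Cell number per well after knock-down, printed as raw plate values; calls were based on per-plate z-scores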. Direction: Kc cell number and S2R+ cell number: higher = more cells remaining. Call rule: 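Active when the per-plate z-score of cell number is 3 or more in the direction of fewer cells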.
In all, the deposit lists about 21,000 reagents; shown is a random part of those with a known target gene and a result. Of all reagents, 429 (2%) were called active. 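Values are raw and not normalised between plates; calls rest on per-plate z-scores that were not deposited.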 Not stated in the record: the amount of reagent, the time to read-out.

{"target gene":"Wee1 (GeneID 33965)","dsRNA":"DRSC03635","Kc cell number, rep 1":1.58e6,"Kc cell number, rep 2":1.49e6,"S2R+ cell number, rep 1":1.27e6,"S2R+ cell number, rep 2":1.42e6,"Call":"inactive"}
{"target gene":"CG13460 (GeneID 39638)","dsRNA":"DRSC10007","Kc cell number, rep 1":1.24e6,"Kc cell number, rep 2":1.43e6,"S2R+ cell number, rep 1":1.26e6,"S2R+ cell number, rep 2":1.39e6,"Call":"inactive"}
{"target gene":"Cyp6a9 (GeneID 36663)","dsRNA":"DRSC07385","Kc cell number, rep 1":1.76e6,"Kc cell number, rep 2":1.94e6,"S2R+ cell number, rep 1":1.49e6,"S2R+ cell number, rep 2":1.60e6,"Call":"inactive"}
{"target gene":"Taf1 (GeneID 40813)","dsRNA":"DRSC12607","Kc cell number, rep 1":1.63e6,"Kc cell number, rep 2":1.75e6,"S2R+ cell number, rep 1":1.08e6,"S2R+ cell number, rep 2":1.21e6,"Call":"inactive"}
{"target gene":"kek5 (GeneID 32930)","dsRNA":"DRSC19438","Kc cell number, rep 1":1.47e6,"Kc cell number, rep 2":1.52e6,"S2R+ cell number, rep 1":1.07e6,"S2R+ cell number, rep 2":1.12e6,"Call":"inactive"}
{"target gene":"CG6592 (GeneID 38687)","dsRNA":"DRSC10669","Kc cell number, rep 1":1.42e6,"Kc cell number, rep 2":1.42e6,"S2R+ cell number, rep 1":1.11e6,"S2R+ cell number, rep 2":1.21e6,"Call":"inactive"}

Next part (2 carried over from the part before).
{"target gene":"kek5 (GeneID 32930)","dsRNA":"DRSC19438","Kc cell number, rep 1":1.47e6,"Kc cell number, rep 2":1.52e6,"S2R+ cell number, rep 1":1.07e6,"S2R+ cell number, rep 2":1.12e6,"Call":"inactive"}
{"target gene":"CG6592 (GeneID 38687)","dsRNA":"DRSC10669","Kc cell number, rep 1":1.42e6,"Kc cell number, rep 2":1.42e6,"S2R+ cell number, rep 1":1.11e6,"S2R+ cell number, rep 2":1.21e6,"Call":"inactive"}
{"target gene":"alc (GeneID 35931)","dsRNA":"DRSC07062","Kc cell number, rep 1":1.48e6,"Kc cell number, rep 2":1.56e6,"S2R+ cell number, rep 1":1.19e6,"S2R+ cell number, rep 2":1.33e6,"Call":"inactive"}
{"target gene":"cnn (GeneID 36491)","dsRNA":"DRSC05422","Kc cell number, rep 1":1.47e6,"Kc cell number, rep 2":1.40e6,"S2R+ cell number, rep 1":9.73e5,"S2R+ cell number, rep 2":1.12e6,"Call":"inactive"}
{"target gene":"cnn (GeneID 36491)","dsRNA":"DRSC07596","Kc cell number, rep 1":1.48e6,"Kc cell number, rep 2":1.54e6,"S2R+ cell number, rep 1":1.24e6,"S2R+ cell number, rep 2":1.35e6,"Call":"inactive"}
{"target gene":"Syx5 (GeneID 34966)","dsRNA":"DRSC03432","Kc cell number, rep 1":1.19e6,"Kc cell number, rep 2":1.27e6,"S2R+ cell number, rep 1":1.04e6,"S2R+ cell number, rep 2":1.13e6,"Call":"inactive"}
{"target gene":"Mal-A3 (GeneID 35826)","dsRNA":"DRSC07462","Kc cell number, rep 1":1.47e6,"Kc cell number, rep 2":1.55e6,"S2R+ cell number, rep 1":1.28e6,"S2R+ cell number, rep 2":1.42e6,"Call":"inactive"}
{"target gene":"Sgs8 (GeneID 39285)","dsRNA":"DRSC11282","Kc cell number, rep 1":1.34e6,"Kc cell number, rep 2":1.27e6,"S2R+ cell number, rep 1":1.33e6,"S2R+ cell number, rep 2":1.44e6,"Call":"inactive"}
